From PubChem BioAssay AID445 (National Center for Advancing Translational Sciences (NCATS), 2006) come the findings set out here.

The assay in a line: IkB Signaling. The following applies: ABC-DLBCL IkBa-CBG/CBR dual luciferase ratio (green luciferase fused to IkBa over red control in OCI-Ly3 lymphoma cells), 4 h. An outline of the steps:
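Curves were fitted separately to fusion (green), unfused (red) and ratio luminescence, then classed by r2, magnitude and activity. Cells: OCI-Ly3, 4 h compound plus doxycycline at 37C; 10 uM MG-132 defined full response.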

Where [1] appears, read: measured here: control luc red channel unless noted.

Some of the results follow. These are further read-outs of the screen, such as a control signal, another cell line or another target. No call is given for them. The list favours compounds with an active or inconclusive main result. The note in brackets gives the kind of curve behind each potency; many fits are weak.

`COc1ccc(C(=O)Nc2cccc(C(=O)OCc3cc(=O)n4c5c(sc4n3)CCCC5)c2)cc1`: the AC50 under setting [1] is 0.2 µM [falling, full curve]. On the same count and under the same terms, the value for `FC(F)(F)c1cccc(Nc2c3c(nc4ccc(Cl)cc24)CCC3)c1` was 12.6 µM [falling, partial curve]; that for `CC(=O)N(C)c1ccc(OCC(O)CN(Cc2ccco2)S(=O)(=O)c2ccc(C)cc2)cc1` (stereo unspecified) was 10 µM [falling, partial curve]. Same read-out and setting: under `COc1cc(OC)c(NC(=O)CCc2c(C)nc3c4c(C)cc(C)nc4nn3c2C)cc1Cl` stands 6.31 µM [falling, single point].

Take `COc1cc(NC(=O)C2CCN(S(=O)(=O)c3c(C)noc3/C=C/c3ccccc3F)CC2)cc(OC)c1OC`: under setting [1], the AC50 is 2.51 µM [falling, full curve, poor fit]. Same read-out and setting: the value for `O=C(NCc1ccco1)c1ccc(NC(=O)C2COc3ccccc3O2)cc1` (stereo unspecified) was 39.8 µM [falling, single point]. For the compound `COc1cccc(/C=C/c2nc(C#N)c(N3CCN(C)CC3)o2)c1`, under setting [1], the AC50 was 25.1 µM [falling, single point]. The same measure, in the same setting: the value for `COc1ccc(Nc2oc(COc3ccc(Cl)cc3)nc2C#N)cc1` was 3.98 µM [falling, partial curve]; that for `Cc1ccc(CCNC(=O)c2ccc(Nc3nc4ccccc4n4nnnc34)cc2)cc1` was 5.01 µM [falling, partial curve]. Same read-out and setting: under `O=C(c1n[nH]c2ccccc12)N1CCN(S(=O)(=O)c2ccc3ccccc3c2)CC1` stands 25.1 µM [falling, partial curve]. With `CCC(Sc1nc2n[nH]c(C)c2c(=N)n1-c1ccccc1Cl)C(=O)N(CC)CC` (stereo unspecified), the AC50 under setting [1] was 39.8 µM [falling, single point]. The same measure, in the same setting: the value for `CC1Cn2c(C(=O)NCc3ccccc3Cl)cc3cccc(c32)S1` (stereo unspecified) was 39.8 µM [falling, single point]; that for `CCOC(=O)c1c(C)oc2ncnc(Nc3cccc(C(F)(F)F)c3)c12` was 0.251 µM [rising, full curve]; that for `CN(C)C=Nc1ncc2c3ccccc3n(CCN(C)C)c2c1C#N` was 31.6 µM [rising, partial curve].

Take `O=c1oc2ccccc2cc1-c1cn2cc(Cc3ccc(F)cc3)sc2n1`: the AC50 under setting [1] was 25.1 µM [rising, partial curve]. Same read-out and setting: the value for `CCN(CC)S(=O)(=O)c1ccc(S(=O)(=O)N(Cc2ccccn2)Cc2ccco2)cc1` was 39.8 µM [falling, single point]; that for `Cc1ccc(Cn2ccnc2SCC(=O)NCc2ccccc2)cc1` was 3.98 µM [falling, partial curve]. With `Cc1nc(-c2ccc(Cl)cc2)sc1CCNC(=O)C(=O)Nc1ccc2c(c1)OCO2`, under setting [1], the AC50 was 2.51 µM [rising, full curve]. The same measure, in the same setting: the value for `Cc1ccc(NC(=O)c2ccc3c(c2)NC(=O)c2ccccc2S3)c(Cl)c1` was 10 µM [falling, partial curve]. Still for that read-out and setting: under `Cn1c(=O)c2c(nc(SCC(=O)Nc3ccccc3F)n2Cc2ccccc2F)n(C)c1=O` stands 10 µM [falling, partial curve]; under `COc1ccc(CNC(=O)C(=O)NCC(c2ccco2)S(=O)(=O)c2ccc(Cl)cc2)cc1` (stereo unspecified), 2.51 µM [rising, partial curve, poor fit]; under `COc1ccc(N2CCN(CCCNC(=O)c3c(C)nn(-c4ccc(F)cc4)c3-n3cccc3)CC2)cc1`, 12.6 µM [falling, partial curve]. The same measure, in the same setting: under `CCc1ccc(NC(=O)Cn2nnc(-c3ccccc3N)n2)cc1` stands 12.6 µM [falling, single point]; under `COc1ccc(S(=O)(=O)N(CC(=O)NC(C)c2ccccc2)c2ccc(C)cc2)cc1OC` (stereo unspecified), 15.8 µM [falling, partial curve]. As to `COc1ccccc1N1CCN(C(=O)c2cc3c(=O)n(Cc4cccs4)ccc3nc2C)CC1`, the half-maximal activity concentration (AC50) under setting [1] was 31.6 µM [falling, single point]. Still for that read-out and setting: under `CCOC(=O)N1CCc2c(sc3c2c(=O)n(-c2ccc(CC)cc2)c(=O)n3Cc2ccc(F)cc2Cl)C1` stands 10 µM [falling, partial curve]; under `COc1ccccc1-c1cc(C(=O)Nc2cc(C)n(Cc3ccc(Cl)cc3)n2)no1`, 0.126 µM [falling, full curve, poor fit]; under `CCOC(=O)c1c(NC(=O)Cc2coc3ccc(CC)cc23)sc2c1CCC2`, 20 µM [falling, single point]. Same read-out and setting: the value for `Cc1ccc(-n2ncc3c(NCCCn4ccnc4)ncnc32)cc1C` was 20 µM [falling, partial curve]; that for `O=C(CCn1c(=O)c2sccc2n(CC(=O)OCc2ccccc2)c1=O)NCc1ccco1` was 31.6 µM [falling, partial curve]; that for `CCOc1ccc2nc(N3CCCC(C(=O)NCCc4ccc(Cl)cc4)C3)sc2c1` (stereo unspecified) was 0.126 µM [falling, full curve].

As for `Cc1nn(CCc2nc(-c3ccco3)cs2)c2[nH]c(=O)cc(C(F)(F)F)c12`, the AC50 under setting [1] is 39.8 µM [falling, single point]. Still for that read-out and setting: under `COc1ccccc1NC(=O)N1CCN(c2ccc3nnc(-c4ccc(F)cc4)n3n2)CC1` stands 2.51 µM [rising, partial curve]; under `c1ccc(CCn2nnnc2C(c2cccnc2)N2CCN(c3nc4ccccc4s3)CC2)cc1` (stereo unspecified), 25.1 µM [falling, partial curve]; under `CC(=O)N1CCCc2ccc(NC(=O)c3ccc(OC(C)C)cc3)cc21`, 12.6 µM [falling, partial curve]. On to `CCC(=O)N1CCc2cc(Br)cc(S(=O)(=O)N3CCCC(C(=O)NCc4ccc(C)cc4)C3)c21` (stereo unspecified), for which, under setting [1], the AC50 is 15.8 µM [falling, partial curve, poor fit]. `Cc1ccc(-n2c3nc(=O)n(C)c(=O)c-3cc3ccccc32)c(C)c1`: under setting [1], the AC50 is 0.01 µM [falling, full curve, poor fit]. As to `COc1cccc2cc(-c3nc4sc5c(c4c(=O)[nH]3)CCC(C(C)(C)C)C5)c(=O)oc12` (stereo unspecified), the AC50 under setting [1] was 0.00316 µM [rising, full curve, poor fit]. Still for that read-out and setting: under `Cc1nc2ccccn2c1/C(O)=C1\C(=O)C(=O)N(CCCN(C)C)C1c1ccc(Cl)cc1` (stereo unspecified) stands 7.94 µM [falling, full curve, poor fit]; under `Cc1ccccc1S(=O)(=O)Cc1ccc(C(=O)N2CCN(c3cccc(C)c3C)CC2)o1`, 5.01 µM [falling, partial curve]; under `Cc1ccc2c(=O)cc(C(=O)Nc3c(C)cccc3C)oc2c1`, 25.1 µM [falling, single point].

As for `CCCCN(Cc1cc2cc(C)ccc2[nH]c1=O)C(=O)c1cccc(Cl)c1`, the AC50 under setting [1] is 7.94 µM [falling, partial curve]. Same read-out and setting: the value for `COc1ccc(NC(=O)c2cc(-c3ccc(O)cc3)on2)cc1OC` was 20 µM [rising, partial curve] [measured here: IkB-luc green channel]; that for `CCOc1ccc(OCC)c(NC(=O)CSc2nc3c(c(=O)n(C)c(=O)n3C)n2C)c1` was 7.94 µM [rising, single point] [measured here: IkB-luc green channel]. With `COC(=O)c1ccccc1NC(=O)C1CCCN(S(=O)(=O)c2ccccc2)C1` (stereo unspecified), the AC50 under setting [1] is 15.8 µM [falling, partial curve]. Still for that read-out and setting: under `CSc1nn(Cc2ccc(F)cc2)c(N(C(C)=O)C(C)=O)c1S(=O)(=O)c1ccccc1` stands 20 µM [falling, single point]; under `Cc1ccc(C(=O)CSc2nc(C)cc(C)c2C(=O)Nc2cccc(C)c2)cc1`, 15.8 µM [falling, partial curve]; under `CNC(=O)c1ccc(-c2sc3nc(N4CCOCC4)c4c(c3c2N)CCCC4)o1`, 10 µM [falling, partial curve].

Regarding `CC1CCCN(Cc2nc3c(c(=O)n(C)c(=O)n3C)n2CC(=O)c2ccccc2)C1` (stereo unspecified), the AC50 under setting [1] is 0.501 µM [falling, full curve]. Still for that read-out and setting: the value for `CCN(C(=O)CN1C(=O)c2ccccc2Sc2ccc(C(=O)OC)cc21)c1cccc(C)c1` was 20 µM [falling, single point]. On to `Nc1ncnc2c1ncn2[C@@H]1O[C@@H](C(=O)NC2CC2)[C@H](O)[C@@H]1O`, for which the AC50 is, setting by setting: (measured here: IkB-luc green channel) 0.00398 µM [rising, full curve, poor fit]; (measured here: control luc red channel) 0.00501 µM [rising, full curve, poor fit]. In the case of `COC(=O)C1CCN(C(=O)COC(=O)c2n[nH]c3ccccc23)CC1`, the concentration at half-maximal activity (AC50) under setting [1] was 2.51 µM [falling, full curve]. The same measure, in the same setting: the value for `Cc1ccc(Nc2c(-c3ccccn3)nc3ccc(Br)cn23)cc1` was 12.6 µM [falling, partial curve, poor fit]; that for `CCC(=O)N1CCc2cc(Br)cc(S(=O)(=O)N3CCCC(C(=O)Nc4ccc(C)c(F)c4)C3)c21` (stereo unspecified) was 5.01 µM [falling, single point]. On the same count and under the same terms, the value for `Cc1ccc(C(=O)N(Cc2ccc(N(C)C)cc2)CC2CCCO2)cc1` (stereo unspecified) was 25.1 µM [falling, single point]; that for `CC(CCc1ccccc1)NC(=O)CSc1n[nH]c(-c2ccccc2)n1` (stereo unspecified) was 39.8 µM [falling, single point]; that for `Cc1ccc2ccc3cc(C(=O)N4CCN(c5ccccc5F)CC4)nc3c2[nH]1` was 10 µM [falling, partial curve, poor fit]. Still for that read-out and setting: under `COc1ccccc1NC(=O)c1c(-c2ccc(C)cc2)nnc2ccccc12` stands 31.6 µM [falling, single point]; under `CSc1nsc(SCC(=O)NC2CCCCC2)n1`, 5.01 µM [falling, partial curve]; under `O=C(CN1CCOCC1)Nc1ccc(Oc2ccc(NC(=O)CN3CCOCC3)cc2)cc1`, 12.6 µM [falling, partial curve].
